{"source": "paper PMC5399293", "about": "“Hierarchical assembly of centriole subdistal appendages via centrosome binding proteins CCDC120 and CCDC68” (Nature Communications, 2017)", "target": "CEP170, bait of the mass spectrometry screen (human)", "test": "affinity purification with mass spectrometry; screen of CEP170-interacting proteins by mass spectrometry; bait and cells not told", "note": "These are yes or no findings as the source states them, for the method shown. Binding seen in cells or lysates may run through a third protein. Here binding means that the protein was enriched with, or labelled near, the bait; the list need not be complete."}
{"binder": "CCDC68, hit of the mass spectrometry screen (protein, UniProt Q9H2F9 1-335) MTTVTVTTEIPPRDKMEDNSALYESTSAHIIEETEYVKKIRTTLQKIRTQMFKDEIRHDSTNHKLDAKHCGNLQQGSDSEMDPSCCSLDLLMKKIKGKDLQLLEMNKENEVLKIKLQASREAGAAALRNVAQRLFENYQTQSEEVRKKQEDSKQLLQVNKLEKEQKLKQHVENLNQVAEKLEEKHSQITELENLVQRMEKEKRTLLERKLSLENKLLQLKSSATYGKSCQDLQREISILQEQISHLQFVIHSQHQNLRSVIQEMEGLKNNLKEQDKRIENLREKVNILEAQNKELKTQVALSSETPRTKVSKAVSTSELKTEGVSPYLMLIRLRK", "values": [{"measurement": "binding", "result": "binds"}]}
